Values joined by “and” are separate entries in the source; they are usually repeats but may differ in a detail not shown here. Equal entries are not always repeated. The inconclusive results got no clear call from the source; some entries with a clear call stand among them for comparison. Where the call is inconclusive, the potency comes from a doubtful curve fit. Active and inactive are the calls of the source. The calls were made as follows: active = hit-call score of the fitted dose curve at least 0.9, where 1 is the maximum; inconclusive = response in the unintended direction; inactive = score below 0.9.
Experiment: ACEA_ER_AUC_viability: ACEA Biosciences xCELLigence Real-Time Cell Analysis on Estrogen Receptor Agonism for Viability (AID 2283782);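 also: hit means loss of impedance signal meaning reduced cell growth or viability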
Summary of the method: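 Read-out: real-time electrical impedance (RT-CES) area under curve, loss of signal taken as reduced viability, normalized to DMSO baseline. T-47D cells, charcoal-stripped serum medium, compounds up to 100 uM final, continuous exposure, 80 h.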

Structure (SMILES)	outcome	AC50
CCc1ccccc1O	inactive	–
Cc1ccc2c(c1)OCC(=O)CO2	inactive	–
CCOC(N)=O	inactive	–
OC12N=C(c3ccccc3)SC1Cc1cc(Cl)ccc12 (stereo not drawn)	–	inconclusive: 50 µM
CCOC(=O)Cc1cccc2ccccc12	–	active: 50 µM
CCCCCCCCCCCCc1ccc(O)cc1	–	active: 20 µM
CCCCc1ccc(N)cc1	inactive	–
CC(C)CCCCCCOC(=O)CCCCC(=O)OCCCCCCC(C)C	–	inconclusive: 50 µM
CCCCCCCCCCCCO	–	active: 68.3 µM
CC1=NN(c2ccccc2)C(=O)C1	inactive	–
CCCCCCCCOc1ccc(C(=O)c2ccccc2)c(O)c1	inactive	–
COc1ccccc1NC(=O)CC(C)=O	–	inconclusive: 15.7 µM
O=C(Nc1ccccc1SSc1ccccc1NC(=O)c1ccccc1)c1ccccc1	–	active: 77.7 µM
CCCCCCCCO	inactive	–
CCCCN(CCC(=O)OCC)C(C)=O	–	inconclusive: 10.8 µM
CN(C)c1ccc2nc3ccc(=[N+](C)C)cc-3sc2c1	–	active: 16.5 µM
CCCCCCCCCCCC(C)=O	–	active: 66.7 µM
CC1=CC(O)CC(C)(C)C1 (stereo not drawn)	–	active: 71.8 µM
Cc1cc(C)n(CO)n1	inactive	–

Part of the list above, with bars between the fields.
Structure (SMILES) | outcome | AC50
CN(C)c1ccc2nc3ccc(=[N+](C)C)cc-3sc2c1 | – | active: 16.5 µM
CCCCCCCCCCCC(C)=O | – | active: 66.7 µM

Remaining list, next part.

Structure (SMILES)	outcome	AC50
O=CN1CCCCC1	inactive	–
Cc1ccc(S(=O)(=O)O)cc1C	inactive	–
O=C(Cl)C(F)(F)C(F)(F)C(F)(F)C(F)(F)C(F)(F)C(F)(F)C(F)(F)F	–	inconclusive: 19 µM
COC(=O)c1ccccc1O	–	inconclusive: 50 µM
C=CC(C)CCCC(C)(C)O (stereo not drawn)	–	inconclusive: 0.0448 µM
COc1ccc2sc(C(=O)Nc3nnn[nH]3)c(OC(C)C)c2c1	–	active: 9.87 µM
Oc1ccc2c(c1)CCC2	inactive	–
c1ccc2c(c1)ccc1cc3c(ccc4ccccc43)cc12	–	inconclusive: 0.00332 µM
C[Si](C)(C)C(F)(F)C(F)(F)C(F)(F)F	–	inconclusive: 19.7 µM
OCCCC(F)(F)C(F)(F)C(F)(F)C(F)(F)C(F)(F)C(F)(F)C(F)(F)F	–	inconclusive: 75 µM
O=S(=O)(O)c1cc(S(=O)(=O)O)c2c(N=Nc3ccccc3)c(O)ccc2c1	–	inconclusive: 50 µM
CC1(C)NC(=O)N(c2ccc([N+](=O)[O-])c(C(F)(F)F)c2)C1=O	–	inconclusive: 10.1 µM and inconclusive: 50 µM
COc1ccc2nc(N)sc2c1	inactive	–
CC(O)CNCC(C)O (stereo not drawn)	–	inconclusive: 24.8 µM
Clc1cc(Cl)c2c(c1)N=C1CCCCCN1C2	inactive	–
c1ccc2sc(SN(C3CCCCC3)C3CCCCC3)nc2c1	–	active: 81.8 µM
C1COCCN1	inactive	–
O=C(O)c1cc(C(=O)O)c(C(=O)O)cc1C(=O)O	inactive	–
CCCCCCCCc1ccc(Nc2ccc(CCCCCCCC)cc2)cc1	inactive	–
